Data: patent publication US10869933B2, “Oligomer-phenothiazine conjugates” (Nektar Therapeutics, priority 2009, dated 2020)

Test: in vivo
Details: rat, iv, 5 mg/kg, Brain/plasma ratio Mean

Kp at 1 h: 0.024
Structure (SMILES): CC(C)NCC(O)COc1ccc(CC(N)=O)cc1 (stereo not shown) [Atanolol, Atenolol]
